Some results were stated once for a whole list of compounds, not compound by compound.
Columns and labels:
Experiment in all cases: greenhouse post-emergence treatment, herbicidal action
Conditions in all cases: application rate 1 kg/ha, scale 0 to 100 (100 = complete destruction, 0 = no damage), test period 2 to 4 weeks
Amaranthus retroflexus = format: in vivo, Amaranthus retroflexus (pig weed)
Chenopodium album = format: in vivo, Chenopodium album (lambsquarters)
Setaria viridis = format: in vivo, Setaria viridis (green foxtail)

CNC(=O)C(NC(=O)c1cn(C)nc1C(F)(F)F)C1(O)CCC(F)(F)CC1 (stereo not drawn) [Compound 2.86]
> 80%: post-emergence action against the unwanted plant Amaranthus retroflectus (Amaranthus retroflexus) | post-emergence action against the unwanted plant Chenopodium album (Chenopodium album) | post-emergence action against the unwanted plant Setaria viridis (Setaria viridis)

CNC(=O)C(NC(=O)c1cn(C)nc1C(F)(F)F)C1(OC(=O)N(C)C)CCC(F)(F)CC1 (stereo not drawn) [Compound 2.87]
> 80%: post-emergence action against the unwanted plant Amaranthus retroflectus (Amaranthus retroflexus) | post-emergence action against the unwanted plant Chenopodium album (Chenopodium album) | post-emergence action against the unwanted plant Setaria viridis (Setaria viridis)

CNC(=O)OC1(C(NC(=O)c2cn(C)nc2C(F)(F)F)C(=O)NC)CCC(F)(F)CC1 (stereo not drawn) [Compound 2.88]
> 80%: post-emergence action against the unwanted plant Amaranthus retroflectus (Amaranthus retroflexus) | post-emergence action against the unwanted plant Chenopodium album (Chenopodium album) | post-emergence action against the unwanted plant Setaria viridis (Setaria viridis)

CNC(=O)C(NC(=O)c1cn(C)nc1C(F)(F)F)C1(OC(=O)N(C)C)CCOCC1 (stereo not drawn) [Compound 2.100]
> 80%: post-emergence action against the unwanted plant Amaranthus retroflectus (Amaranthus retroflexus) | post-emergence action against the unwanted plant Chenopodium album (Chenopodium album) | post-emergence action against the unwanted plant Setaria viridis (Setaria viridis)

CNC(=O)OC1(C(NC(=O)c2cn(C)nc2C(F)(F)F)C(=O)NC)CCOCC1 (stereo not drawn) [Compound 2.101]
> 80%: post-emergence action against the unwanted plant Amaranthus retroflectus (Amaranthus retroflexus) | post-emergence action against the unwanted plant Chenopodium album (Chenopodium album) | post-emergence action against the unwanted plant Setaria viridis (Setaria viridis)

CNC(=O)C(NC(=O)c1cn(C)nc1C(F)(F)F)C1(OC(N)=O)CCOCC1 (stereo not drawn) [Compound 2.102]
> 80%: post-emergence action against the unwanted plant Amaranthus retroflectus (Amaranthus retroflexus) | post-emergence action against the unwanted plant Chenopodium album (Chenopodium album) | post-emergence action against the unwanted plant Setaria viridis (Setaria viridis)

CNC(=O)C(NC(=O)c1cn(C)nc1C(F)(F)F)C1(OC(=O)N(C)C)CCSCC1 (stereo not drawn) [Compound 2.104]
> 80%: post-emergence action against the unwanted plant Amaranthus retroflectus (Amaranthus retroflexus) | post-emergence action against the unwanted plant Chenopodium album (Chenopodium album) | post-emergence action against the unwanted plant Setaria viridis (Setaria viridis)

CNC(=O)C(NC(=O)c1cn(C)nc1C(F)(F)F)C1(OC(=O)N(C)C)CC[S+]([O-])CC1 (stereo not drawn) [Compound 2.105]
> 80%: post-emergence action against the unwanted plant Amaranthus retroflectus (Amaranthus retroflexus) | post-emergence action against the unwanted plant Chenopodium album (Chenopodium album) | post-emergence action against the unwanted plant Setaria viridis (Setaria viridis)

CNC(=O)C(NC(=O)c1cn(C)nc1C(F)(F)F)C1(O)CCCCC1 (stereo not drawn) [Compound 2.107]
> 80%: post-emergence action against the unwanted plant Amaranthus retroflectus (Amaranthus retroflexus) | post-emergence action against the unwanted plant Chenopodium album (Chenopodium album) | post-emergence action against the unwanted plant Setaria viridis (Setaria viridis)

CNC(=O)C(NC(=O)c1cn(C)nc1C(F)(F)F)C1(OC(=O)N(C)C)CCCCC1 (stereo not drawn) [Compound 2.109]
> 80%: post-emergence action against the unwanted plant Amaranthus retroflectus (Amaranthus retroflexus) | post-emergence action against the unwanted plant Chenopodium album (Chenopodium album) | post-emergence action against the unwanted plant Setaria viridis (Setaria viridis)

CNC(=O)C(NC(=O)c1cn(C)nc1C(F)(F)F)C1(O)CCOC1C (stereo not drawn) [Compound 2.111]
> 80%: post-emergence action against the unwanted plant Amaranthus retroflectus (Amaranthus retroflexus) | post-emergence action against the unwanted plant Chenopodium album (Chenopodium album) | post-emergence action against the unwanted plant Setaria viridis (Setaria viridis)

CNC(=O)C(NC(=O)c1cn(C)nc1C(F)(F)F)C1(OC(=O)N(C)C)CCSC1 (stereo not drawn) [Compound 2.112]
> 80%: post-emergence action against the unwanted plant Amaranthus retroflectus (Amaranthus retroflexus) | post-emergence action against the unwanted plant Chenopodium album (Chenopodium album) | post-emergence action against the unwanted plant Setaria viridis (Setaria viridis)

CNC(=O)C(NC(=O)c1cn(C)nc1C(F)(F)F)C1(OC(C)=O)CCCCC1 (stereo not drawn) [Compound 2.116]
> 80%: post-emergence action against the unwanted plant Amaranthus retroflectus (Amaranthus retroflexus) | post-emergence action against the unwanted plant Chenopodium album (Chenopodium album) | post-emergence action against the unwanted plant Setaria viridis (Setaria viridis)

CNC(=O)OC1(C(NC(=O)c2cn(C)nc2C(F)(F)F)C(=O)NC)CCCCC1 (stereo not drawn) [Compound 2.117]
> 80%: post-emergence action against the unwanted plant Amaranthus retroflectus (Amaranthus retroflexus) | post-emergence action against the unwanted plant Chenopodium album (Chenopodium album) | post-emergence action against the unwanted plant Setaria viridis (Setaria viridis)

CNC(=O)C(NC(=O)c1cn(C)nc1C(F)(F)F)C1(O)CCC2(CC1)OCCO2 (stereo not drawn) [Compound 2.118]
> 80%: post-emergence action against the unwanted plant Amaranthus retroflectus (Amaranthus retroflexus) | post-emergence action against the unwanted plant Chenopodium album (Chenopodium album) | post-emergence action against the unwanted plant Setaria viridis (Setaria viridis)

CNC(=O)C(NC(=O)c1cn(C)nc1C(F)(F)F)C1(OC(=O)N(C)C)CCC2(CC1)OCCO2 (stereo not drawn) [Compound 2.119]
> 80%: post-emergence action against the unwanted plant Amaranthus retroflectus (Amaranthus retroflexus) | post-emergence action against the unwanted plant Chenopodium album (Chenopodium album) | post-emergence action against the unwanted plant Setaria viridis (Setaria viridis)

CNC(=O)OC1(C(NC(=O)c2cn(C)nc2C(F)(F)F)C(=O)NC)CCC1 (stereo not drawn) [Compound 2.136]
> 80%: post-emergence action against the unwanted plant Amaranthus retroflectus (Amaranthus retroflexus) | post-emergence action against the unwanted plant Chenopodium album (Chenopodium album) | post-emergence action against the unwanted plant Setaria viridis (Setaria viridis)

CNC(=O)C(NC(=O)c1cn(C)nc1C(F)(F)F)C1(OC(C)=O)CCC1 (stereo not drawn) [Compound 2.149]
> 80%: post-emergence action against the unwanted plant Amaranthus retroflectus (Amaranthus retroflexus) | post-emergence action against the unwanted plant Chenopodium album (Chenopodium album) | post-emergence action against the unwanted plant Setaria viridis (Setaria viridis)

CNC(=O)C(NC(=O)c1cn(C)nc1C(F)(F)F)C1(OC(=O)N(C)C)CCN(C(C)=O)CC1 (stereo not drawn) [Compound 2.158]
> 80%: post-emergence action against the unwanted plant Amaranthus retroflectus (Amaranthus retroflexus) | post-emergence action against the unwanted plant Chenopodium album (Chenopodium album) | post-emergence action against the unwanted plant Setaria viridis (Setaria viridis)

CNC(=O)OC1(C(NC(=O)c2cn(C)nc2C(F)(F)F)C(=O)NC)CCCC1C (stereo not drawn) [Compound 2.170]
> 80%: post-emergence action against the unwanted plant Amaranthus retroflectus (Amaranthus retroflexus) | post-emergence action against the unwanted plant Chenopodium album (Chenopodium album) | post-emergence action against the unwanted plant Setaria viridis (Setaria viridis)

CNC(=O)C(NC(=O)c1cn(C)nc1C(F)(F)F)C1(OC(=O)N(C)C)CCC(=NO)CC1 (stereo not drawn) [Compound 2.181]
> 80%: post-emergence action against the unwanted plant Amaranthus retroflectus (Amaranthus retroflexus) | post-emergence action against the unwanted plant Chenopodium album (Chenopodium album) | post-emergence action against the unwanted plant Setaria viridis (Setaria viridis)

CNC(=O)C(NC(=O)c1cn(C)nc1C(F)(F)F)C1(OC(C)=O)CC2CCC1C2 (stereo not drawn) [Compound 2.186]
> 80%: post-emergence action against the unwanted plant Amaranthus retroflectus (Amaranthus retroflexus) | post-emergence action against the unwanted plant Chenopodium album (Chenopodium album) | post-emergence action against the unwanted plant Setaria viridis (Setaria viridis)

CNC(=O)C(NC(=O)c1cn(C)nc1C(F)(F)F)C1(OC(C)=O)CC2C=CC1C2 (stereo not drawn) [Compound 2.187]
> 80%: post-emergence action against the unwanted plant Amaranthus retroflectus (Amaranthus retroflexus) | post-emergence action against the unwanted plant Chenopodium album (Chenopodium album) | post-emergence action against the unwanted plant Setaria viridis (Setaria viridis)

CCOC(=O)N1C2CCC1CC(O)(C(NC(=O)c1cn(C)nc1C(F)(F)F)C(=O)NC)C2 (stereo not drawn) [Compound 2.188]
> 80%: post-emergence action against the unwanted plant Amaranthus retroflectus (Amaranthus retroflexus) | post-emergence action against the unwanted plant Chenopodium album (Chenopodium album) | post-emergence action against the unwanted plant Setaria viridis (Setaria viridis)

CCOC(=O)N1C2CCC1CC(OC(=O)NC)(C(NC(=O)c1cn(C)nc1C(F)(F)F)C(=O)NC)C2 (stereo not drawn) [Compound 2.189]
> 80%: post-emergence action against the unwanted plant Amaranthus retroflectus (Amaranthus retroflexus) | post-emergence action against the unwanted plant Chenopodium album (Chenopodium album) | post-emergence action against the unwanted plant Setaria viridis (Setaria viridis)

CCCCCC1CCCC1(O)C(NC(=O)c1cn(C)nc1C(F)(F)F)C(=O)NC (stereo not drawn) [Compound 2.190]
> 80%: post-emergence action against the unwanted plant Amaranthus retroflectus (Amaranthus retroflexus) | post-emergence action against the unwanted plant Chenopodium album (Chenopodium album) | post-emergence action against the unwanted plant Setaria viridis (Setaria viridis)

From patent US8133851B2, “Heteroaroyl-substituted serine amides” (BASF SE, priority 2007, dated 2012)
